Source: ChEMBL document CHEMBL6127114, “Discovery of Bis-imidazolecarboxamide Derivatives as Novel, Potent, and Selective TNIK Inhibitors for the Treatment of Idiopathic Pulmonary Fibrosis” (J Med Chem, 2024)

Sequences of proteins named here, by UniProt entry; tags and fusion partners are left off. A change or cut given only in a name is not applied to a line headed by its entry.
UniProt P10721, whole entry: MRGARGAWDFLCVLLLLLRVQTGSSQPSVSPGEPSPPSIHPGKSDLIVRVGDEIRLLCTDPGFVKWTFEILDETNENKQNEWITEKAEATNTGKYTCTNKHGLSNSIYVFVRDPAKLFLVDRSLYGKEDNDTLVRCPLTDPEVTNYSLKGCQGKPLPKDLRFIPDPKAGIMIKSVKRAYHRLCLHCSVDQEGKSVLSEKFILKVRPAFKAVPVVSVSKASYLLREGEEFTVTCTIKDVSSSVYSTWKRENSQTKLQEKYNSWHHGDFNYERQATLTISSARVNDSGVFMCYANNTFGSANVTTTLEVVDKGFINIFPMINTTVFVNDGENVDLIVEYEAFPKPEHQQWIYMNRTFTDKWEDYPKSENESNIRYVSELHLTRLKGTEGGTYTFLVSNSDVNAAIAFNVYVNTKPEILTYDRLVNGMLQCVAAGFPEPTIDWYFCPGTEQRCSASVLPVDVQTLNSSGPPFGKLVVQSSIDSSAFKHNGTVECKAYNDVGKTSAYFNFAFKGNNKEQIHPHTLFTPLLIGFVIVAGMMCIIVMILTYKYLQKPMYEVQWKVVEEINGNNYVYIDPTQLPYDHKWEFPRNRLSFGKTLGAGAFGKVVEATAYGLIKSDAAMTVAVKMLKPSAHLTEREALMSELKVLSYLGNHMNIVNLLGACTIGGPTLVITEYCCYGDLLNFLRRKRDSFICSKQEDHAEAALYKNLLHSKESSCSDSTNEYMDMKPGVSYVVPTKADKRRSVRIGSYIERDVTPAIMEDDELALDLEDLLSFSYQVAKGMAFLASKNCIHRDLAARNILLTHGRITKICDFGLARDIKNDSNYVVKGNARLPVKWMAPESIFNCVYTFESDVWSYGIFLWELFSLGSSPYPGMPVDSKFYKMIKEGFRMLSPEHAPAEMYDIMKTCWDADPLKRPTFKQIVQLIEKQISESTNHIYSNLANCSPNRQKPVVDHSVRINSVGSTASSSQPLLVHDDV
UniProt Q96GD4, whole entry: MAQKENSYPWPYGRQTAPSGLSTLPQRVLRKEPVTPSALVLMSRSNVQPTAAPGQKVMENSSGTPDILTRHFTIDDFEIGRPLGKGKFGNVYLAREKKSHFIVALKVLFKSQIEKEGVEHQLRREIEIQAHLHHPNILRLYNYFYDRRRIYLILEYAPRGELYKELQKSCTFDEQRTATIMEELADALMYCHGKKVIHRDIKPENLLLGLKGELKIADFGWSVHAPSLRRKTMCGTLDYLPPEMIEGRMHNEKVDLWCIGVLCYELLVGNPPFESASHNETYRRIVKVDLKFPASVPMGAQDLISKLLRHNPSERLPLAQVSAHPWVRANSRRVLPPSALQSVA
UniProt P16234: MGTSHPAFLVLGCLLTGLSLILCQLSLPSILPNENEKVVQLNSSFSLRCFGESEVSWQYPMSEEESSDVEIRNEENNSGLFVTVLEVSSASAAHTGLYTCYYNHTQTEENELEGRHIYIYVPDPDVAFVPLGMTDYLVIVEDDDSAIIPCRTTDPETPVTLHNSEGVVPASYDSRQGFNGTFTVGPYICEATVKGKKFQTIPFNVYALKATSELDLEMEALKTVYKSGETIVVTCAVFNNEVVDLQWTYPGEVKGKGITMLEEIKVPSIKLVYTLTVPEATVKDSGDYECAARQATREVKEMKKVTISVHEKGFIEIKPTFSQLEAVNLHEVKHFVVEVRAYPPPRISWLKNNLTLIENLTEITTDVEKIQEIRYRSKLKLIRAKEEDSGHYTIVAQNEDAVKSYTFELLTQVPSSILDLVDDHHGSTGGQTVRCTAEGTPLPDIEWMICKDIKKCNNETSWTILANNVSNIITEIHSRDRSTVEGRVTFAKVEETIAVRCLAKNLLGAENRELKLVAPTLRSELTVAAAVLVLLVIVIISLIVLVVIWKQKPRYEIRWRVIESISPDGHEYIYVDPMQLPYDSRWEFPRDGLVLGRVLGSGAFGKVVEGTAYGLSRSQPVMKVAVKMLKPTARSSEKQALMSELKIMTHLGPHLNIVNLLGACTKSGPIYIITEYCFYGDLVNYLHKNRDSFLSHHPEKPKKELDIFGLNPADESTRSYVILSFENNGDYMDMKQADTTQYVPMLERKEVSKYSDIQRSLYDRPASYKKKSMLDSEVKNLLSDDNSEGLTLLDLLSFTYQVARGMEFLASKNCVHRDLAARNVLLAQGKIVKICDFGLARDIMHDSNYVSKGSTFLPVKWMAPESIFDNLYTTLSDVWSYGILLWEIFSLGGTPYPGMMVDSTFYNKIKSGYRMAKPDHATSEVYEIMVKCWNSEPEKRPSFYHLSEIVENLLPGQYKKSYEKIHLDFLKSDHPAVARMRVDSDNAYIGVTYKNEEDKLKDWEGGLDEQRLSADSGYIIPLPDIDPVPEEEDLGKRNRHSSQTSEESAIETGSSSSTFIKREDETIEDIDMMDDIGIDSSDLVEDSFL
UniProt P07947, whole entry: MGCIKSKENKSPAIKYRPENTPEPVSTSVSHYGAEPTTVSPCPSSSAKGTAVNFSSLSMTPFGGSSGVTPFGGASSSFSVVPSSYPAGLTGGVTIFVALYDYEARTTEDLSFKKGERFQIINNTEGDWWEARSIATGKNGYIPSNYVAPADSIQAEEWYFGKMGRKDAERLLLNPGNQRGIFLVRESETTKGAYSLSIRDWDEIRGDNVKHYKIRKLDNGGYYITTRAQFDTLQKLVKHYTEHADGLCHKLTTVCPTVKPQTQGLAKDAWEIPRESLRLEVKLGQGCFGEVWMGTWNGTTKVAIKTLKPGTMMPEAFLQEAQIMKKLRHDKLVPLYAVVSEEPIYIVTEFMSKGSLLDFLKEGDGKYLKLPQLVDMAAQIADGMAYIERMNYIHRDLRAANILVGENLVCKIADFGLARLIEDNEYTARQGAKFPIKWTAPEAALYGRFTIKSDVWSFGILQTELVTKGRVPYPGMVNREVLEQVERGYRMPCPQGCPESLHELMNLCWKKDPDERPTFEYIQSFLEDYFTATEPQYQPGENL
UniProt P35968, whole entry: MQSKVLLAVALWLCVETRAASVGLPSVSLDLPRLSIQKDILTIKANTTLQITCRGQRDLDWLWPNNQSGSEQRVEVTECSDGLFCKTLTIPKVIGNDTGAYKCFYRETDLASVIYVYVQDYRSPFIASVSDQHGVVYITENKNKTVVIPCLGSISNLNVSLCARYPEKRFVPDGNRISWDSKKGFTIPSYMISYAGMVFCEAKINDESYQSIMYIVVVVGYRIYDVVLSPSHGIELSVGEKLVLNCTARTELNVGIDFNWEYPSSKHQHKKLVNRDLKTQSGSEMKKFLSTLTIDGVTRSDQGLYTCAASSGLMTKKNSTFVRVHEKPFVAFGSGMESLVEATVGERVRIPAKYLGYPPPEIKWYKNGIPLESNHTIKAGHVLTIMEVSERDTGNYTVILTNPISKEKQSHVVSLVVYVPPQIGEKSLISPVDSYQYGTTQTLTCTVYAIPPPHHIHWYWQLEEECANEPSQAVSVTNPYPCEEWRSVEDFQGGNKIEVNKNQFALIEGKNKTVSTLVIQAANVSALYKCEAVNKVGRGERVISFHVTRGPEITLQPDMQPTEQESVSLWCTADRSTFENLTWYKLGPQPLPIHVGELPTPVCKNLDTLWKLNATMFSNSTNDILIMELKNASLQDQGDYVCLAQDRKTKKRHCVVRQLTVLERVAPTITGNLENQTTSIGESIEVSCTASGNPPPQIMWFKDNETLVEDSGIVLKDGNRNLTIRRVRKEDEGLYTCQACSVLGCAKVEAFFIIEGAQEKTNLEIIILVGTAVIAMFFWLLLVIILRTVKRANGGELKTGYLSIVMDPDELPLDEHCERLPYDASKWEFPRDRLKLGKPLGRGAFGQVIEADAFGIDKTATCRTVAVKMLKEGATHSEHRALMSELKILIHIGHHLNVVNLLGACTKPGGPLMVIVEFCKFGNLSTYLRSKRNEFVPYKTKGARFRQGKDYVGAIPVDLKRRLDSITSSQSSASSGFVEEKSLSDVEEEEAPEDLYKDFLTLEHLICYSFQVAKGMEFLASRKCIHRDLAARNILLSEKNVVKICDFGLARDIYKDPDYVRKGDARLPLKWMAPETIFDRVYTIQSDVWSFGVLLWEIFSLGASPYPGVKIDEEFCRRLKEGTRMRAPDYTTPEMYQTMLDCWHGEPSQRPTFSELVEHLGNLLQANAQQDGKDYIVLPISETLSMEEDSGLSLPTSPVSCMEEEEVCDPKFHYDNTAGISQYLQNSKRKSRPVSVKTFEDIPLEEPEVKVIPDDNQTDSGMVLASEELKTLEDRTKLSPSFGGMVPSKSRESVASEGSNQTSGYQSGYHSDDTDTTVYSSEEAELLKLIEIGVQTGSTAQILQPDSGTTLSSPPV
UniProt P06239: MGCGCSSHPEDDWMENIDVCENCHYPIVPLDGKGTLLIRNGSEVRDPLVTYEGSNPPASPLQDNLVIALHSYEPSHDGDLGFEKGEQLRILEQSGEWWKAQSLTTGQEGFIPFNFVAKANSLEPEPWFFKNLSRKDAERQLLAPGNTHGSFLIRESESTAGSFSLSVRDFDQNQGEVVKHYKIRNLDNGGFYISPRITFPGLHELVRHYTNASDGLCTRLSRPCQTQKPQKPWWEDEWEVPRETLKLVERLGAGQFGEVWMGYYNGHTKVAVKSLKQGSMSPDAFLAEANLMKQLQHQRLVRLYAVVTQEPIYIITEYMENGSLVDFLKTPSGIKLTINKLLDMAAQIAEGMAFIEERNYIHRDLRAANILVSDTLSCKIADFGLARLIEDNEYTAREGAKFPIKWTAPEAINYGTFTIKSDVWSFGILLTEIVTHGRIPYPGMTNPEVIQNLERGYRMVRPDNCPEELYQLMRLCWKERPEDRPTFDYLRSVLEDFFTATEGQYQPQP
UniProt Q15303, whole entry: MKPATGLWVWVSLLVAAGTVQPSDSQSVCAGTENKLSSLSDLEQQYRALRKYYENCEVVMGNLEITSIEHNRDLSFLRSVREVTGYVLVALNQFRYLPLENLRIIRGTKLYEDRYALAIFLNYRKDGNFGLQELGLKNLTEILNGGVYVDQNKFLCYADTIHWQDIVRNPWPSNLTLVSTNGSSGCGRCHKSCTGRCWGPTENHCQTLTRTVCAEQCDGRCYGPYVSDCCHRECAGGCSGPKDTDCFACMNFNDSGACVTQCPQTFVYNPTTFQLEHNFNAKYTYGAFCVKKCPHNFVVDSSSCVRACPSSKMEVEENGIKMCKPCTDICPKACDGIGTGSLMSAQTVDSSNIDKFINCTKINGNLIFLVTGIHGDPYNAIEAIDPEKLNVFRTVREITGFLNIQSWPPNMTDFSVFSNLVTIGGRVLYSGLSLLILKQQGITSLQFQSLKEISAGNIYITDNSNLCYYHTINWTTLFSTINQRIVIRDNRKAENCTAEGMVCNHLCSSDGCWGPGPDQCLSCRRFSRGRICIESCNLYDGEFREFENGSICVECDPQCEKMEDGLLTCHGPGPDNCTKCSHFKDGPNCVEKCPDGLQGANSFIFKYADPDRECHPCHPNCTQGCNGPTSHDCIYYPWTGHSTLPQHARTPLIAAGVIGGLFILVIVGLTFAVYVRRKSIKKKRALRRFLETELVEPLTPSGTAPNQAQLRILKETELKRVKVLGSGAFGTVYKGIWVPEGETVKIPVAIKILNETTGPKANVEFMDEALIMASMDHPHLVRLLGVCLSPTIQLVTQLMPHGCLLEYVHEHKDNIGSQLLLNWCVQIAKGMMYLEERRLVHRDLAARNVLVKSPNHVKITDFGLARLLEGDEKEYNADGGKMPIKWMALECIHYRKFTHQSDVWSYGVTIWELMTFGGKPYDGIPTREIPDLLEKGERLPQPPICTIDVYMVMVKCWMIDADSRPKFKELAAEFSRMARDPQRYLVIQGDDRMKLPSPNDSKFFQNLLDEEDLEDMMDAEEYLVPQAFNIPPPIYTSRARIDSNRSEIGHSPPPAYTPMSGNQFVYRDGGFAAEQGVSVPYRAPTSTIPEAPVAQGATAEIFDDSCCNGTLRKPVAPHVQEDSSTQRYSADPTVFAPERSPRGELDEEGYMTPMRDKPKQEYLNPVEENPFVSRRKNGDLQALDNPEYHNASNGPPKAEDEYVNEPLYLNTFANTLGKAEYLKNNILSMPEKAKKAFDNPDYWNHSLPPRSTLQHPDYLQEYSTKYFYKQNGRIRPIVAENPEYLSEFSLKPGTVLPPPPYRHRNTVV

Assays:
[1] = target: Mast/stem cell growth factor receptor Kit (Homo sapiens, UniProt P10721); assay: Inhibition human Kit
[2] = target: Epidermal growth factor receptor (Homo sapiens, UniProt P00533); assay: Inhibition of human EGFR
Aurora kinase B = Aurora kinase B (Homo sapiens, UniProt Q96GD4); assay: Inhibition of human Aurora B
[3] = target: Platelet-derived growth factor receptor alpha (Homo sapiens, UniProt P16234); assay: Inhibition of human PDGFR alpha
[4] = target: Tyrosine-protein kinase Yes (Homo sapiens, UniProt P07947); assay: Inhibition of human YES
[5] = target: Vascular endothelial growth factor receptor 2 (Homo sapiens, UniProt P35968); assay: Inhibition of human wild type partial length VEGFR2 (R787 to P1253 residues) expressed in mammalian cells by Eurofins DiscoverX method; type: cell-based
[6] = target: Tyrosine-protein kinase Lck (Homo sapiens, UniProt P06239); assay: Inhibition of human wild type partial length LCK (R207 to P509 residues) expressed in bacteria by Eurofins DiscoverX method
Activin receptor type-1B = target: T1, Activin receptor type-1B (Homo sapiens, UniProt P36896); assay: Inhibition of human ALK4
T1 sequence (P36896 whole entry): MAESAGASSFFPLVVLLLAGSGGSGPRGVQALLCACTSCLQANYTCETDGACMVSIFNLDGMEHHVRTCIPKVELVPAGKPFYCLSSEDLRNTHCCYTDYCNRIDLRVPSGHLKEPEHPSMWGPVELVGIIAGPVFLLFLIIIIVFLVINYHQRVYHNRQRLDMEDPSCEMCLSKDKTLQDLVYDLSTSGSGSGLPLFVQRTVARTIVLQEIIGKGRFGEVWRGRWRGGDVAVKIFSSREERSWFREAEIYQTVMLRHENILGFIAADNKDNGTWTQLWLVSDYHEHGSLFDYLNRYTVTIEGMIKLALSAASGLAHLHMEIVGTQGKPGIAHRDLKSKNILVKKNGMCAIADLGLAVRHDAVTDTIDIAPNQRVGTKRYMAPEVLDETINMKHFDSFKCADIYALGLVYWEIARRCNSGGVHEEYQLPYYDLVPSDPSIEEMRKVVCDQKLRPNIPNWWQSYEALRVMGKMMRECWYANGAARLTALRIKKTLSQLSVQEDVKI

[7] = target: Receptor tyrosine-protein kinase erbB-4 (Homo sapiens, UniProt Q15303); assay: Inhibition of human ErbB4

CC(C)n1cnc(-c2ccc(F)cc2)c1-c1nc(C(=O)Nc2ccc(N3CCN(C)CC3)cc2)c[nH]1
IC50 [1]: < 0.1 µM | IC50 [2]: < 0.1 µM | IC50 (Aurora kinase B): > 10 µM | IC50 [3]: < 0.1 µM | IC50 [4]: < 0.1 µM | IC50 [5]: 3.5 µM | IC50 [6]: 0.31 µM | IC50 (Activin receptor type-1B): < 0.1 µM | IC50 [7]: > 10 µM
